This passage reports binding results from publication PMC8739325.

By UniProt entry, the sequences of proteins in these tests, tags left out.
UniProt P35637: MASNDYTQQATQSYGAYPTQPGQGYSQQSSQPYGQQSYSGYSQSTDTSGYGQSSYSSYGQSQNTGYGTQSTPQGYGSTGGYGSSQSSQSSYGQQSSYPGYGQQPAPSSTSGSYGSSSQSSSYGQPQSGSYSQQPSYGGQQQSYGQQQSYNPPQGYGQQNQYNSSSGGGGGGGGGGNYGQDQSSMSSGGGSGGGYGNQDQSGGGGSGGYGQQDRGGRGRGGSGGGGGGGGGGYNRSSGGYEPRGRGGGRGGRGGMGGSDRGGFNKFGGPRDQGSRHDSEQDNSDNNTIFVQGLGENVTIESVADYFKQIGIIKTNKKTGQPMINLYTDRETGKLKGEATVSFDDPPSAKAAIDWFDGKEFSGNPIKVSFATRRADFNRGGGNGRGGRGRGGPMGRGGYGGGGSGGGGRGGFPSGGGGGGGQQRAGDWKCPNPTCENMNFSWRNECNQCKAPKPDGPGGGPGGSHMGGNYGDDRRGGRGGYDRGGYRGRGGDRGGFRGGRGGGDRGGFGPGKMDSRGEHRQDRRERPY

Results are given in words; binding and its absence hold for the method and conditions named. In cells and extracts the contact can be indirect. Some results given as binding are weak or reduced against the parent protein; the word gives no strength.

Test [1] concerns the target T1, Quaking (QKI), human (human (endogenous in B-SPZ)) (UniProt Q96PU8).
T1 sequence: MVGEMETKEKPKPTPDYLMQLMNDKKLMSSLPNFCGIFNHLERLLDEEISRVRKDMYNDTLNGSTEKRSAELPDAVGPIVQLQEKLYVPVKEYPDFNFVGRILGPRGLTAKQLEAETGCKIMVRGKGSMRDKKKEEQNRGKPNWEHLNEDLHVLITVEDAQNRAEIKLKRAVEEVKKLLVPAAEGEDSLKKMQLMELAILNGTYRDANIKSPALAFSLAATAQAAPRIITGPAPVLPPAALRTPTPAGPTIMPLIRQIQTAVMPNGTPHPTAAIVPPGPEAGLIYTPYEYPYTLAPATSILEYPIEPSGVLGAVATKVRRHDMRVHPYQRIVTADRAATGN
The experiment in a line: co-IP; human B-SPZ lysed in RIPA buffer, sonicated; 500 ug supernatant proteins with 2 ug FUS, QKI or RNApol2 antibody or IgG overnight at 4 °C, Protein A/G PLUS agarose beads, washes in cold TBS pH 7.6; western blot with FUS, QKI and RNApol2 antibodies.

The target of test [2] is Fused protein in Sarcoma (FUS), human (human (endogenous in B-SPZ)) (UniProt P35637). Described as above.
For test [3] the target is unchanged. The experiment in a line: co-IP; protein fraction of the RIP assay: human B-SPZ treated in vitro with vehicle (CTRL) or 1 uM ACEA, lysed in RIP lysis buffer (50 mM Tris-HCl pH 7.4, 150 mM NaCl, 5 mM EDTA, 1% NP-40, 0.1% SDS); 5 ug FUS antibody or IgG overnight at 4 °C, Protein A/G PLUS agarose beads; 10% of beads analysed by western blot.

With “Fused protein in Sarcoma (FUS), human (from UniProt P35637 1-526)”, in test [1], the binding result is on record as “binds”.

B1: Quaking (QKI), human (protein, UniProt Q96PU8 1-341)
chain: MVGEMETKEKPKPTPDYLMQLMNDKKLMSSLPNFCGIFNHLERLLDEEISRVRKDMYNDTLNGSTEKRSAELPDAVGPIVQLQEKLYVPVKEYPDFNFVGRILGPRGLTAKQLEAETGCKIMVRGKGSMRDKKKEEQNRGKPNWEHLNEDLHVLITVEDAQNRAEIKLKRAVEEVKKLLVPAAEGEDSLKKMQLMELAILNGTYRDANIKSPALAFSLAATAQAAPRIITGPAPVLPPAALRTPTPAGPTIMPLIRQIQTAVMPNGTPHPTAAIVPPGPEAGLIYTPYEYPYTLAPATSILEYPIEPSGVLGAVATKVRRHDMRVHPYQRIVTADRAATGN
For B1, the binding result in test [2] and in test [3] was “binds” each time.
